{"source": "paper PMC6440994", "about": "“Human RAD51 paralogue SWSAP1 fosters RAD51 filament by regulating the anti-recombinase FIGNL1 AAA+ ATPase” (Nature Communications, 2019)", "note": "These are yes or no findings as the source states them, for the method shown. Binding seen in cells or lysates may run through a third protein. Binding can be weak; no strength is given. Where a sequence is shown, tags or fusion partners need not be part of it."}
{"target": "T1, Myc-FIGNL1 (human) (UniProt Q6PIW4)", "T1 sequence": "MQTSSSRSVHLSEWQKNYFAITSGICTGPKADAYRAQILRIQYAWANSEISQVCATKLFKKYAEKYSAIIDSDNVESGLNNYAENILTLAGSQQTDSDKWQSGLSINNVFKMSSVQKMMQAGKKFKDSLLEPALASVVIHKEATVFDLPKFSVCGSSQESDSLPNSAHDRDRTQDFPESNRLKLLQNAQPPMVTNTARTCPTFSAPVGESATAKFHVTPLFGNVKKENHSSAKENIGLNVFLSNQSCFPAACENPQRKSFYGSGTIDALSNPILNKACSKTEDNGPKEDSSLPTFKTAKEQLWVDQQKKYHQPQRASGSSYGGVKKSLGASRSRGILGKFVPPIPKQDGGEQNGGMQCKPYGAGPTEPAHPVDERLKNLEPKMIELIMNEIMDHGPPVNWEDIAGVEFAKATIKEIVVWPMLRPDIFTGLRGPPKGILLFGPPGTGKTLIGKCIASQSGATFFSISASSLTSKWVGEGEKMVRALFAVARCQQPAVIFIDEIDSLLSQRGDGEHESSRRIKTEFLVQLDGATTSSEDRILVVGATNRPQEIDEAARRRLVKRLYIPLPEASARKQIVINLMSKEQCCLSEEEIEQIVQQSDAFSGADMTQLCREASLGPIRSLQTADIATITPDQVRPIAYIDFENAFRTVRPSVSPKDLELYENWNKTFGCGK", "assay": "co-IP; Myc-FIGNL1 and FLAG-SWSAP1 (or mutants) co-expressed in 293T, 72 h; benzonase-treated extract; anti-Myc beads 2 h at 4 °C; washes with 150 mM NaCl, 0.25% NP-40; immunoblot"}
{"substance": "FLAG-SWSAP1-D4C (residues 194–229 deleted) (human) (domain or fragment)", "binding": "binds"}
{"substance": "FLAG-SWSAP1-EE (F23E, A26E) (human)", "binding": "binds"}
{"substance": "FLAG-SWSAP1-D4N (residues 169–193 deleted) (human)", "binding": "binds"}
